Experimental data reported in patent publication US20160251440A1.
Numbering of substitutions follows the chain as printed. No constants are given. Whether binding was seen depends on the method and setting. Some binding calls cover weakened binding; strength is not graded here.

Assays:
[1] = target: human IL-3Rα (CD123), cell-expressed (human) (UniProt P26951); experiment: flow cytometry at one concentration, 4.6 nM, on MOLM-13 cells (CXCR4+/CD123+), anti-FLAG detection
[2] = target: T1, recombinant IL-3Rα ectodomain (human) (UniProt P26951); experiment: ELISA on recombinant IL-3Ra ectodomain (panel 'IL-3Ra ELISA', lower left)
T1 sequence (looked up): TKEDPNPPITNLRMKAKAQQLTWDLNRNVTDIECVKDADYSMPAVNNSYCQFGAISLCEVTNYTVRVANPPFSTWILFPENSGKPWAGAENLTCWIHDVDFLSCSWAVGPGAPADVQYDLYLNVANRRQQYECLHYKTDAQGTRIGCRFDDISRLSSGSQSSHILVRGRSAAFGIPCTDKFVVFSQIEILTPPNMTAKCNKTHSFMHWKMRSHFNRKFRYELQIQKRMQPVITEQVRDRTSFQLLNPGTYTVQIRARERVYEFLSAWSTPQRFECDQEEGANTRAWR

[3] = target: human IL-3Rα (CD123), cell-expressed (human) (UniProt P26951); experiment: FACS, HEK293T-IL-3Rα cells
[4] = target: human IL-3Rα (CD123), cell-expressed (human) (UniProt P26951); experiment: flow cytometry on MOLM-13 cells (IL-3Ra higher than CXCR4)
[5] = target: human IL-3Rα (CD123), cell-expressed (human) (UniProt P26951); experiment: flow cytometry on THP-1 cells, anti-FLAG detection
[6] = target: human IL-3Rα (CD123), cell-expressed (human) (UniProt P26951); experiment: flow cytometry on THP-1 cells (CXCR4 and IL-3Ra)
[7] = target: human IL-3Rα (CD123), cell-expressed (human) (UniProt P26951); experiment: flow cytometry on HEK293 cells transfected with human IL-3Ra, anti-FLAG detection
[8] = target: human IL12Rβ1, cell-expressed (human) (UniProt P42701); experiment: FACS, activated T cells
[9] = target: human IL12Rβ1, cell-expressed (human) (UniProt P42701); experiment: flow cytometry on activated human T cells, anti-FLAG detection
[10] = target: human CD4, cell-expressed (human) (UniProt P01730); experiment: FACS, MOLM-13 cells
[11] = target: human CD4, cell-expressed (human) (UniProt P01730); experiment: flow cytometry on activated T cells of donor D838 (very high CD4, moderate IL12R), upper left panel
[12] = target: human CD4, cell-expressed (human) (UniProt P01730); experiment: flow cytometry on MOLM-13 cells (CD4, no IL12R or IL23R), upper left panel
[13] = target: human CD4, cell-expressed (human) (UniProt P01730); experiment: FACS, activated human T cells
[14] = target: human CD4, cell-expressed (human) (UniProt P01730); experiment: multi-colour FACS, TH1 activated T cells
[15] = target: human CD4, cell-expressed (human) (UniProt P01730); experiment: multi-colour flow cytometry on TH1 activated T cells gated for CD4 or CD8, anti-flag-APC detection
[16] = target: T1, recombinant IL-3Rα ectodomain (human); experiment: ELISA on recombinant IL-3Ra ectodomain (lower right panel)

Measured: binding

B1: 55A01 (VHH)
VHH: EVQLVESGGGSVQAGGSLRLSCTTSGRALNMYVMGWFRQAPGNEREFVAATSSSGGSTSYPDSVKGRFTISRDNAKNTVYLQMNSLKPEDTAAYRCAASPYVSTPTMNILEEYRYWGLGTQVTVSS
binds: [1] | [2] | [3] | [4] | [5] | [6] | [7]

B2: IL12Rb1#31: 148F09 (VHH)
VHH: EVQLVESGGGLVQTGGSLRLSCAASGRTPSIIAMGWFRQTPGKEREFVGEIILSKGFTYYADSVKGRFTISRANAKNTITMYLQMNSLKSEDTAVYYCAARQNWSGNPTRTNEYEYWGQGTLVTVSS
binds: [8] | [9]

B3: IL12Rb2#2-35GS-CD4#8 (bispecific antibody)
chain: EVQLVESGGRLVQAGDSLRLSCAASGRTFTSYRMGWFRQAPGKEREFVSALRWSSGNIDYTYYADSVKGRFSISGDYAKNTVYLQMNSLKAEDTAVYYCAASTRWGVMESDTEYTSWGQGTLVTVSSGGGGSGGGGSGGGGSGGGGSGGGGSGGGGSGGGGSEVQLVESGGGSVQPGGSLTLSCGTSGRTFNVMGWFRQAPGKEREFVAAVRWSSTGIYYTQYADSVKSRFTISRDNAKNTVYLEMNSLKPEDTAVYYCAADTYNSNPARWDGYDFRGQGTLVTVSS
binds: [10] | [11] | [12] | [13]

B4: IL12Rb2#1-35GS-CD4#8 (bispecific antibody)
chain: B3 chain with T30I, S49A, G56S
binds: [14] | [10] | [11] | [12] | [13] | [15]

B5: CD4#8-35GS-IL12Rb2#2 (bispecific antibody)
chain: EVQLVESGGGSVQPGGSLTLSCGTSGRTFNVMGWFRQAPGKEREFVAAVRWSSTGIYYTQYADSVKSRFTISRDNAKNTVYLEMNSLKPEDTAVYYCAADTYNSNPARWDGYDFRGQGTLVTVSSGGGGSGGGGSGGGGSGGGGSGGGGSGGGGSGGGGSEVQLVESGGRLVQAGDSLRLSCAASGRTFTSYRMGWFRQAPGKEREFVSALRWSSGNIDYTYYADSVKGRFSISGDYAKNTVYLQMNSLKAEDTAVYYCAASTRWGVMESDTEYTSWGQGTLVTVSS
binds: [10] | [11] | [12] | [13]

B6: CD4#8-35GS-IL12Rb2#1 (bispecific antibody)
chain: B5 chain with T190I, S209A, G216S
binds: [10] | [11] | [12] | [13]

B7: 57A07 (VHH)
VHH: EVQLVESGGGLVQAGGSLRLSCAASGSIFSGNVMGWYRRQAPGKEREWVAAIASGGSIYYRDSVKGRFTISRDNAKNTVYLQMNSLKPEDTAVYYCNSHPPTLPYWGLGTQVTVSS
binds: [1] | [3] | [5] | [16] | [7]
